Four molecules from publication PMC9570407 can be followed below.

Results are given in words; binding and its absence hold for the method and conditions named. In cells and extracts the contact can be indirect. Here binding means that the protein was enriched with, or labelled near, the bait; the list need not be complete. For some assays here: A no says only that the protein was not detected with the bait.

Test [1] concerns the target KaeA-TEV-GFP fusion (A. nidulans). Put plainly: affinity purification with mass spectrometry; KaeA-TEV-GFP captured from mycelial extract on GFP-TrapA resin, 12 h at 4 °C, IPP 150 (10 mM HEPES pH 8.0, 150 mM NaCl), 0.1% Triton X-100, RNase cocktail; released by TEV protease; LC-MS; four biological experiments, two of them with DNase; hits absent from the untagged control strain (1).

The target is the same in test [2]. Put plainly: condition: only with DNase (2 U of DNase TURBO during the purification); affinity purification with mass spectrometry; as a1, the samples with 2 U of DNase TURBO added during the purification.

B1: AN2181, a homologue of the yeast Toa2p-TFIIA small subunit (protein, UniProt Q5BB99 1-111)
chain: MSAQAYYELYRGSSLGLSLTDTLDDLINEGRIEPQLAMKILSTFDRVITEVLADKVRTRLTFKGHLDTYRFCDEVWTFLIKDVNFKLDNQQTISADKVKIVSCNSKRPGEA
In the case of B1, in test [1], the binding result is on record as “binds”.

B2: PipA (Bud32p homologue) (protein, UniProt Q5BAB7 1-285)
chain: MPPTNRPPPFSTILSSASLPSYSSTDELTPIYQGAEAHLYKTTFLSPSQPAALKIRPSKPYRHPILDRRLTRARILQEARCLQKLVKEGVSVPALLGVDWEPSAGDGSSWLVMEWIEGEPVRVILEEWEAYLKGIEREKRLGLGEGVQGSEEEKVRGLMRRIGRAVGGLHRAGVIHGDLTTSNLMLRPLGSADTTETIEERDQSPSMAGEVVMIDFGLAMQSSQDEDRAVDLYVLERAFGSSHPRTERFFEEVLVGYRESYKGAVSALKRLEDVRMRGRKRSMIG
Take B2: the binding entry in test [1] was “binds”.

B3: CmkA, calcium/calmodulin-dependent protein kinase A (enzyme, UniProt Q00771 1-414)
chain: MSFANMFNKLSGQPESYEKKSLYRFGRTLGAGTYGIVREADCSSGKVAVKIILKRNVRGNERMVYDELDLLQKLNHPHIVHFVDWFESKDKFYIVTQLATGGELFDRICEYGKFTEKDASQTIRQVLDAVNYLHQRNIVHRDLKPENLLYLTRDLDSQLVLADFGIAKMLDNPAEVLTSMAGSFGYAAPEVMLKQGHGKAVDIWSLGVITYTLLCGYSPFRSENLTDLIEECRSGRVVFHERYWKDVSKDAKDFILSLLQVDPAQRPTSEEALKHPWLKGESASDRDLLPEIRAYIARSRLKRGIEIIKLANRIEALKMQEEDEEDIPSAVDVQASEASDKSGLSPFPALSTENSNTHPASTGNGESGGTKKRSLSKIARGAIFREVVLAKVREMKENEEREKVEREARERAHS
Regarding B3, the binding entry in test [1] is “binds”; in test [2] it was “no binding”.

B4: PkaR, putative protein kinase A (PKA) regulatory subunit (protein, UniProt O59922 1-412)
chain: MSNYSHSSNNPFLKVSTKEDKPSSFHKIAEDEEYEVTSPTDATFRASKNADNSAGGNNPLESGRAGESGDGIRFGRDPFGNFQGGAEGQDESSIDPNGFRPTGGPDHGFPNNYALGRRTSVSAESLNPTSAGSDSWTPPSHPKSEEQLARLKTAVSNNFLFSHLDDEQSRTVLDALVEKPIPAKDIKVISQGDAGDYFYIVEEGHFDVYINPSGSVQPGPDGAGTKISTIGPGGSFGELALMYNAPRAATIVSTEPKSTLWALDRITFRRILMDSAFQRRRMYEAFLEEVPLLSSLKPYERAKIADALDTIKFPAGEYIIKEGDPGDAFYLLESGEAEAFMEGVEEPVKSYKRGDYFGELALLDDKPRAASVRAKTEVKVAKLGRDGFKRLLGPVENIMRRTEYSSRPSTAT
Take B4: in test [1], the binding entry is “binds”.
